The source of these data is paper PMC9268489.

The assay concerns the target T1, G-protein-coupled estrogen receptor (GPER1), mouse gastric smooth muscle (mouse (endogenous in gastric smooth muscle)) (UniProt Q8BMP4).
T1 sequence: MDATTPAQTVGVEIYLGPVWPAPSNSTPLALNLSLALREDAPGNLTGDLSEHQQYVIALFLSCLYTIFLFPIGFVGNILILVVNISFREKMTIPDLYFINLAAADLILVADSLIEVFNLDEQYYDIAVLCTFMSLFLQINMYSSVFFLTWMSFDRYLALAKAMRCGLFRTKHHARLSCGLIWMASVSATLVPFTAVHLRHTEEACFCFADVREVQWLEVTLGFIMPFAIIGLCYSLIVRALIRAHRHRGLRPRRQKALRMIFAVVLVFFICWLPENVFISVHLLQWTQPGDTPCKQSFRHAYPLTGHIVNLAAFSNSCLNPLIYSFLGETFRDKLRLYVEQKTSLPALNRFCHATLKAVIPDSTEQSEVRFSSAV
The assay can be described thus: co-IP; mouse gastric smooth muscle (MGSM) lysate (Triton X-100-based lysis buffer), GPER1 antibody, protein A/G agarose, immunoblot.

These are yes or no findings as the source states them, for the method shown. In cells and extracts the contact can be indirect. Binding can be weak; no strength is given.

For “angiotensin II type 1 receptor (AT1R), mouse gastric smooth muscle”, the binding result is given as “binds”.
